Some results were stated once for a whole list of compounds, not compound by compound.
Tests used:
Gaeumannomyces graminis = Gaeumannomyces graminis / liquid culture (take-all of cereals); format: cell-based; settings: 200 ppm in the formulation, inhibition of growth photometrically 4-5 days after application
[1] = tested on: Mycosphaerella arachidis (Cercospora arachidicola); assay: Mycosphaerella arachidis (Cercospora arachidicola) / liquid culture (early leaf spot); format: cell-based; settings: 200 ppm in the formulation, inhibition of growth photometrically 4-5 days after application
[2] = tested on: Mycosphaerella graminicola (Septoria tritici); assay: Mycosphaerella graminicola (Septoria tritici) / liquid culture (Septoria blotch); format: cell-based; settings: 200 ppm in the formulation, inhibition of growth photometrically 4 to 5 days after application
[3] = tested on: Botryotinia fuckeliana (Botrytis cinerea); assay: Botryotinia fuckeliana (Botrytis cinerea) / liquid culture (gray mould); format: cell-based; settings: 200 ppm in the formulation, inhibition of growth photometrically 3-4 days after application
[4] = tested on: Glomerella lagenarium (Colletotrichum lagenarium); assay: Glomerella lagenarium (Colletotrichum lagenarium) / liquid culture (anthracnose); format: cell-based; settings: 200 ppm in the formulation, inhibition of growth photometrically 3 to 4 days after application
[5] = tested on: Monocraphella nivalis (Microdochium nivale); assay: Monocraphella nivalis (Microdochium nivale) / liquid culture (foot rot cereals); format: cell-based; settings: 200 ppm in the formulation, inhibition of growth photometrically 4-5 days after application
[6] = tested on: Magnaporthe grisea (Pyricularia oryzae); format: in vivo; settings: 200 ppm in the formulation; rice leaf segments cv. Ballila; compared to untreated control
Pyrenophora teres = Pyrenophora teres / barley / leaf disc preventative (net blotch); format: in vivo; settings: 200 ppm of the formulation; barley leaf segments cv. Hasso; compared to untreated control
[7] = tested on: Blumeria graminis f. sp. tritici (Erysiphe graminis f. sp. tritici); assay: Blumeria graminis f. sp. tritici / wheat / leaf disc preventative (powdery mildew on wheat); format: in vivo; settings: 200 ppm in the formulation; wheat leaf segments cv. Kanzler; compared to untreated control
Alternaria solani = Alternaria solani / tomato / leaf disc (early blight); format: in vivo; settings: 200 ppm in the formulation; tomato leaf disks cv. Baby; compared to untreated control
[8] = tested on: Thanatephorus cucumeris (Rhizoctonia solani); assay: Thanatephorus cucumeris (Rhizoctonia solani) / liquid culture (foot rot, damping-off); format: cell-based; settings: 200 ppm in the formulation, inhibition of growth photometrically 3 to 4 days after application
Fusarium culmorum = format: cell-based

Measured: disease control

COc1ccnc(C(=O)Nc2ccc(OC3CCCCCCC3)cc2F)c1O [I.b.273]
not listed: [7] | Alternaria solani | [8] | Fusarium culmorum
at least 80%: all other assays above

COc1ccnc(C(=O)Nc2ccc(OC3CCC4(CC3)COC4)cc2F)c1O [I.b.298]
at least 80%: Gaeumannomyces graminis | [7] | [1] | [2] | [3] | [5] | [6]

COc1ccnc(C(=O)Nc2ccc(OC3CCCCCC3)cc2F)c1O [I.b.268]
not listed: Alternaria solani | [8] | Fusarium culmorum
at least 80%: all other assays above

CCC1CCC(Oc2ccc(NC(=O)c3nccc(OC)c3O)c(F)c2)CC1 (stereo not shown) [I.b.168]
not listed: [7] | Fusarium culmorum
at least 80%: all other assays above

COc1ccnc(C(=O)Nc2ccc(OC3CCCCCCC3)cc2F)c1OC(C)=O [I.c.273]
at least 80%: Alternaria solani | [7] | Fusarium culmorum | Pyrenophora teres

COc1ccnc(C(=O)Nc2ccc(OC3CCC(c4ccccc4)CC3)cc2F)c1O (stereo not shown) [I.b.193]
not listed: [6] | Pyrenophora teres | [7] | Alternaria solani
at least 80%: all other assays above
